PubChem BioAssay AID743121, NCATS, 2013
Assay: 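Genes whose silencing strengthens cell killing by camptothecin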 (primary screen). Cell system: MDA-MB-231 cells, a human breast cancer line. Reagent: single siRNA against human genes, 20 nM siRNA (0.8 pmol per well). Timing: 120 h (drug added 48 h after transfection, read 72 h later). Conditions: camptothecin 20 nM (about EC30) for 72 h; vehicle 0.1% DMSO in parallel plates. Detection: 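CellTiter-Glo ATP signal, scaled to control siRNA as percent viability; sensitisation given as log2 of untreated divided by camptothecin-treated viability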. Direction: log2 vehicle/camptothecin viability: higher = stronger sensitisation to camptothecin; viability with camptothecin: higher = more viable cells. Hit rule: 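Active genes have an RSA gene-level p-value below 0.001, computed from the ratios of their separate siRNAs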.
The deposit covers about 26,000 reagents; this is a random part of them. 167 of all reagents (0.63%) count as active. 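Calls are per gene from RSA p-values that are not deposited; an individual active-marked siRNA can sensitise only weakly.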 A number with no mark means an inactive call. The numbers tell different reagents against one gene apart. Not all columns of the deposit are shown.

gene	reagent	log2 vehicle/camptothecin viability	viability with camptothecin (% of control)
DNAH9 (dynein axonemal heavy chain 9)	1	-0.497	122
DNAH9 (dynein axonemal heavy chain 9)	2	-0.169	111
DNAH9 (dynein axonemal heavy chain 9)	3	-0.0578	80.8
HNRNPU (heterogeneous nuclear ribonucleoprotein U)	1	0.0716	64.5
HNRNPU (heterogeneous nuclear ribonucleoprotein U)	2	-0.291	56
HNRNPU (heterogeneous nuclear ribonucleoprotein U)	3	-0.00208	47.3
HNRNPU (heterogeneous nuclear ribonucleoprotein U)	4	-0.525	82.3
GABRA2 (gamma-aminobutyric acid type A receptor subunit alpha2)	1	0.0343	12.5
GABRA2 (gamma-aminobutyric acid type A receptor subunit alpha2)	2	0.191	97.8
GABRA2 (gamma-aminobutyric acid type A receptor subunit alpha2)	3	-0.136	105
GABRA2 (gamma-aminobutyric acid type A receptor subunit alpha2)	4	-0.191	69.3
NPY6RP (neuropeptide Y receptor Y6, pseudogene)	1	-0.292	118
NPY6RP (neuropeptide Y receptor Y6, pseudogene)	2	0.173	82.1
NPY6RP (neuropeptide Y receptor Y6, pseudogene)	3	-0.236	105
NPY6RP (neuropeptide Y receptor Y6, pseudogene)	4	-0.374	59.6
CALR (calreticulin)	1	-0.169	51.2
CALR (calreticulin)	2	-0.135	109
CALR (calreticulin)	3	0.553	81
RAD51C (RAD51 paralog C)	1	0.531	39.4
RAD51C (RAD51 paralog C)	2	0.0202	90.9
RAD51C (RAD51 paralog C)	3	-0.0706	95
RAD51C (RAD51 paralog C)	4	0.0198	61.7
AUP1 (AUP1 lipid droplet regulating VLDL assembly factor)	1	-0.195	74
AUP1 (AUP1 lipid droplet regulating VLDL assembly factor)	2	-0.268	70.3
AUP1 (AUP1 lipid droplet regulating VLDL assembly factor)	3	-0.137	93.2
THEM4 (thioesterase superfamily member 4)	1	-0.219	113
THEM4 (thioesterase superfamily member 4)	2	-0.307	91.9
THEM4 (thioesterase superfamily member 4)	3	-0.189	88.4
THEM4 (thioesterase superfamily member 4)	4	-0.0694	106
DGCR2 (DiGeorge syndrome critical region gene 2)	1	-0.855	97.6
DGCR2 (DiGeorge syndrome critical region gene 2)	2	0.0652	67
DGCR2 (DiGeorge syndrome critical region gene 2)	3	0.49	75.1
DGCR2 (DiGeorge syndrome critical region gene 2)	4	-0.126	112
PTTG1IP (PTTG1 interacting protein)	1	-0.131	68.8
PTTG1IP (PTTG1 interacting protein)	2	-0.0585	89
PTTG1IP (PTTG1 interacting protein)	3	-0.491	74.5
PTTG1IP (PTTG1 interacting protein)	4	-0.0962	91.5
FBXW2 (F-box and WD repeat domain containing 2)	1	-0.512	83.8
FBXW2 (F-box and WD repeat domain containing 2)	2	-0.113	112
FBXW2 (F-box and WD repeat domain containing 2)	3	-0.397	86.6
FBXW2 (F-box and WD repeat domain containing 2)	4	-0.279	39.3
HDAC8 (histone deacetylase 8)	1	0.126	87.6
HDAC8 (histone deacetylase 8)	2	0.00864	39.2
HDAC8 (histone deacetylase 8)	3	1.15	16.5
HDAC8 (histone deacetylase 8)	4	-0.0941	91.5
TSPAN13 (tetraspanin 13)	1	-0.11	62.7
TSPAN13 (tetraspanin 13)	2	-0.137	73.9
TSPAN13 (tetraspanin 13)	3	-0.394	35.3
TSPAN13 (tetraspanin 13)	4	0.204	77.8
PRKACG (protein kinase cAMP-activated catalytic subunit gamma)	1	0.162	64.2
PRKACG (protein kinase cAMP-activated catalytic subunit gamma)	2	-0.465	95.7
PRKACG (protein kinase cAMP-activated catalytic subunit gamma)	3	-0.307	108
PRKACG (protein kinase cAMP-activated catalytic subunit gamma)	4	-0.212	91.7
EDF1 (endothelial differentiation related factor 1)	1	-0.345	71.1
EDF1 (endothelial differentiation related factor 1)	2	-0.352	60.8
EDF1 (endothelial differentiation related factor 1)	3	0.186	61.1
ASIC1 (acid sensing ion channel subunit 1)	1	-0.525	70.4
ASIC1 (acid sensing ion channel subunit 1)	2	0.139	83.4
ASIC1 (acid sensing ion channel subunit 1)	3	-0.148	49.6
ASIC1 (acid sensing ion channel subunit 1)	4	-0.311	101
CENPE (centromere protein E)	1	-0.292	91.3
CENPE (centromere protein E)	2	-0.613	87
CENPE (centromere protein E)	3	-0.313	74
CENPE (centromere protein E)	4	-0.423	26
CRADD (CARD and death domain containing adaptor protein)	1	-0.206	87.4
CRADD (CARD and death domain containing adaptor protein)	2	0.253	23.8
CRADD (CARD and death domain containing adaptor protein)	3	-0.111	83.5
CRADD (CARD and death domain containing adaptor protein)	4	-0.458	59
